From patent publication US10717757B2, “Ketolides having antibacterial activity” (BIOPHARMATI SA, priority 2016, dated 2020)
Values after ≈ are worked out from the molar mass of the structure shown.

What was measured:
[1] = tested on: S. pneumoniae ATCC 49619 (CLSI QC strain); assay: Minimum inhibitory concentration (MIC), broth microdilution, QC strain; format: cell-based; conditions: Streptococcus pneumoniae; ATCC49619 QC strain; MIC in duplicates; read-out: MIC Strep. Pneumoniae ATCC49619 QC strain
Procedure: (§1) Example 17. Protocols for Determining Minimum Inhibitory Concentration (MIC) of Test Compounds Against Streptococcus Pneumoniae Strains
(§2) The test strains are revived from frozen stock on blood agar plates and incubated at 35±2° C. for 18-20 hours in 5% CO2. Colonies are directly suspended from an overnight grown agar culture in CAMHB/saline and optical density adjusted to 0.5 McFarland turbidity standard (1-2×10^8 cfu/mL). Adjusted cultures are further diluted 1:100 using CAMHB such that after inoculation each well finally contains ˜5×10^5 cfu/mL. For broth dilution testing of Streptococcus species, CAMHB is supplemented with 2.5-5% v/v LHB. Colony counts of inoculum suspension is estimated by ten-fold serial dilutions and plating each dilution on agar plate. After incubation, the plates are observed for growth and microbial counts determined.
(§3) Compounds are weighed and dissolved in water/DMSO/other solvent to yield 1 mg/mL stock solution. Serial two-fold dilutions of the test compounds and reference antibiotics are prepared. 50 μL of the diluted drug solutions are dispensed in wells of microtiter trays (96 well).
(§4) To each of the wells of the microtiter tray, 50 μL of the diluted organism are inoculated to obtain a final inoculum density of ˜5×10^5 cfu/mL. […]
(§5) After incubation period, growth of organism in the wells are detected by unaided eye facilitated by a viewing device. […]

[2] = tested on: S. pneumoniae AUCC479, macrolide & penicillin sensitive; assay: Minimum inhibitory concentration (MIC), broth microdilution, AUCC479; format: cell-based, Streptococcus pneumoniae
Procedure: Protocols for Determining Minimum Inhibitory Concentration (MIC) of Test Compounds Against Streptococcus Pneumoniae Strains
as §2, §3, §4, §5

[3] = tested on: S. pneumoniae AUCC488, macrolide & penicillin resistant; assay: Minimum inhibitory concentration (MIC), broth microdilution, AUCC488; format: cell-based, Streptococcus pneumoniae
Procedure: as §1, §2, §3, §4, §5

[4] = tested on: S. pneumoniae AUCC489, macrolide & penicillin resistant; assay: Minimum inhibitory concentration (MIC), broth microdilution, AUCC489; format: cell-based, Streptococcus pneumoniae
Procedure: as §1, §2, §3, §4, §5

[5] = tested on: S. pneumoniae AUCC483, macrolide resistant & penicillin sensitive; assay: Minimum inhibitory concentration (MIC), broth microdilution, AUCC483; format: cell-based, Streptococcus pneumoniae
Procedure: as §1, §2, §3, §4, §5

With `CCC[C@@H]1C[C@@H](C(=O)N[C@@H]([C@H]2O[C@H](SC)[C@H](O)[C@@H](O)[C@H]2O)[C@H](C)Cl)N(C)C1` [clindamycin, reference compound] the MIC [1] was 0.06 µg/mL (≈ 0.141 µM), the “MIC Strep. Pneumoniae AUCC 479 penS, macS” value [2] was 0.015 to 0.03 µg/mL and the “MIC Strep. Pneumoniae AUCC 488 penR, macR M or iMLS” value [3] was 0.06 µg/mL (≈ 0.141 µM). The “MIC Strep. Pneumoniae AUCC 489 penR, macR cMLS” value [4] was over 64 µg/mL and the “MIC Strep. Pneumoniae AUCC 483 penS, macR cMLS” value [5] was at least 64 µg/mL.
